Test results as given in paper PMC8922672.
Results are given in words; binding and its absence hold for the method and conditions named. In cells and extracts the contact can be indirect. Some results given as binding are weak or reduced against the parent protein; the word gives no strength.

Sequences of proteins named here, by UniProt entry; tags and fusion partners are left off.
UniProt P05412: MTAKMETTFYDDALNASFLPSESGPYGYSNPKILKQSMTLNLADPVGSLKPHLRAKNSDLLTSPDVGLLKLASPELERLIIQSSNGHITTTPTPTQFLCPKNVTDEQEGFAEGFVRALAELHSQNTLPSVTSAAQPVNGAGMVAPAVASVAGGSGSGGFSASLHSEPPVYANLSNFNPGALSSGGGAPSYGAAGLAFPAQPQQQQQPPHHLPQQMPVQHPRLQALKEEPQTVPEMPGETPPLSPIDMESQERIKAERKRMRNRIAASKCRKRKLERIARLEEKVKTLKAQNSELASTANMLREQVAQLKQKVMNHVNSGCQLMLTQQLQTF
UniProt P10070: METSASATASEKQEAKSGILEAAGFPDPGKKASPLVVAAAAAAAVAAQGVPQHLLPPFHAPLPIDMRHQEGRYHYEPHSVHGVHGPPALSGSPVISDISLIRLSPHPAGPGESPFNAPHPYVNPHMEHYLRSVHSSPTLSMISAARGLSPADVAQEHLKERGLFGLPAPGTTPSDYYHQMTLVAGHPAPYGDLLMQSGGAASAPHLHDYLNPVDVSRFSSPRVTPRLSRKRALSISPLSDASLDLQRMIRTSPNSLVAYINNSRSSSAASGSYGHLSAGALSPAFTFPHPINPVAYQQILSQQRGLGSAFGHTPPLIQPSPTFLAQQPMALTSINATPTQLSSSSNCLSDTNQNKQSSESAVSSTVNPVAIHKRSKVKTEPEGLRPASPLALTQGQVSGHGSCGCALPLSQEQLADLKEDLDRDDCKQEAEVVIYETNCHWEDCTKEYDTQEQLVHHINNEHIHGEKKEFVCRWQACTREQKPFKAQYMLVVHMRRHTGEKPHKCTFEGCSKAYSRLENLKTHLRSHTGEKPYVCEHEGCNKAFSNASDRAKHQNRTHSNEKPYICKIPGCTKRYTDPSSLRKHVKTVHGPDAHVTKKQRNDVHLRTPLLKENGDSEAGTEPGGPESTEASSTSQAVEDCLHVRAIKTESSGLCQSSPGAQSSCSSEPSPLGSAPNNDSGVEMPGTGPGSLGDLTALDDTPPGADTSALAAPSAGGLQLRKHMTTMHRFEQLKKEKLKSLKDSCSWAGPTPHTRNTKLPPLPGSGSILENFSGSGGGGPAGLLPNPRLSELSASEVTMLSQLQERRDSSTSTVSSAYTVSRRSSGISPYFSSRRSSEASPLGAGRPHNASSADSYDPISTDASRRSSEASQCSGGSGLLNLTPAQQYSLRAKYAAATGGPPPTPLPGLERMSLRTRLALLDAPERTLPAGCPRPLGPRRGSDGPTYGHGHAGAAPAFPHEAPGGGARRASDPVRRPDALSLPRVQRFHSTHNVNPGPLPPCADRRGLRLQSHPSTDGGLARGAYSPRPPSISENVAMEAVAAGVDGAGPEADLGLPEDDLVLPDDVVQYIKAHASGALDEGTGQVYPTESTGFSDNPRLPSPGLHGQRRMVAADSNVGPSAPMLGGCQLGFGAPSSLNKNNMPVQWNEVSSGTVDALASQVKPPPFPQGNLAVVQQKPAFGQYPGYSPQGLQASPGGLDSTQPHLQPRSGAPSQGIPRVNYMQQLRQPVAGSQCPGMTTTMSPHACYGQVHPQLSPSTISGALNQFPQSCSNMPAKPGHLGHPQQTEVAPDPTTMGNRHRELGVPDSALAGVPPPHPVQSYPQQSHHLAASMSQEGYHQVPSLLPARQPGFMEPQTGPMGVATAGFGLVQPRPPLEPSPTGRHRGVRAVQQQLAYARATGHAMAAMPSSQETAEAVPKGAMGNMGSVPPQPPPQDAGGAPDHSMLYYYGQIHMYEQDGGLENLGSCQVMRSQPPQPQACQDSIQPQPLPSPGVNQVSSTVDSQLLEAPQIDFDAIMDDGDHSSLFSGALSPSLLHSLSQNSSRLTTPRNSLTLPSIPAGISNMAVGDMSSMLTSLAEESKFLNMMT

Target: cJUN (UniProt P05412)
Assay: co-IP; co-immunoprecipitation of cJUN and GLI2; cells not given; interaction in the nucleus; TGFβ stimulates the interaction

- binding: binds
Substance: GLI2 (from UniProt P10070 1-1586)
